Data from the supplement of paper PMC4635364.
Counter-ions that a name gives are not always drawn. The list shows a part of the results. Repeats in this data set agree poorly, so a single value says little.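 ReNCell VM, a human fetal ventral-midbrain neural progenitor line, was differentiated without mitogens. Blinded raters scored images stained for doublecortin (early neurons) or tyrosine hydroxylase (dopaminergic neurons) against untreated wells (0 = no change). Scores were averaged across repeats and both raters, and compounds averaging 2 or more were selected as hits for retesting.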

Assays:
[1] = system: ReNCell VM; assay: neuronal differentiation score (DCX+ cell fraction vs untreated, manual image score) (score (-3 to 3)); higher = more neuronal differentiation; conditions: 2 uM, 2 weeks
[2] = system: ReNCell VM; assay: dopaminergic neuron differentiation score (TH+ cell fraction vs untreated, manual image score) (score (0 to 3)); higher = more TH+ dopaminergic neuron differentiation; conditions: 2 uM, 4 weeks, BDNF 10 ng/ml + GDNF 10 ng/ml

CN(C)CC/C=C1/c2ccccc2Sc2ccc(Cl)cc21 [Chlorprothixene hydrochloride]
inactive: neuronal differentiation score ([1]; library: LOPAC) 0 | neuronal differentiation score ([1]; library: Prestwick) 0 | dopaminergic neuron differentiation score ([2]; library: LOPAC) 0 | dopaminergic neuron differentiation score ([2]; library: Prestwick) 0

COc1cccc(NC(=O)/C=C/c2ccc(Cl)cc2)c1
inactive: neuronal differentiation score ([1]; library: LOPAC) -1 | neuronal differentiation score ([1]; library: Tocriscreen) 0 | dopaminergic neuron differentiation score ([2]; library: LOPAC) 0 | dopaminergic neuron differentiation score ([2]; library: Tocriscreen) 0

CCOC(=O)C1=C(C)NC(C)=C(C(=O)OC)C1c1cccc(Cl)c1Cl (stereo not drawn) [Felodipine]
inactive: neuronal differentiation score ([1]; library: LOPAC) -1 | neuronal differentiation score ([1]; library: Prestwick) 0 | dopaminergic neuron differentiation score ([2]; library: LOPAC) 0 | dopaminergic neuron differentiation score ([2]; library: Prestwick) 0

CC(C)[N+](C)(CCOC(=O)C1c2ccccc2Oc2ccccc21)C(C)C [Propantheline bromide]
inactive: neuronal differentiation score ([1]; library: LOPAC) 1 | neuronal differentiation score ([1]; library: Prestwick) 0 | dopaminergic neuron differentiation score ([2]; library: LOPAC) 0 | dopaminergic neuron differentiation score ([2]; library: Prestwick) 0

O=C(O)C1=CCNCC1 [Isoguvacine hydrochloride]
inactive: neuronal differentiation score ([1]; library: LOPAC) 0 | neuronal differentiation score ([1]; library: Tocriscreen) 0 | dopaminergic neuron differentiation score ([2]; library: LOPAC) 0 | dopaminergic neuron differentiation score ([2]; library: Tocriscreen) 0

CC(=O)Nc1ccc(O)cc1 [Acetaminophen]
inactive: neuronal differentiation score ([1]; library: Prestwick) 0 | neuronal differentiation score ([1]; library: Tocriscreen) 0 | dopaminergic neuron differentiation score ([2]; library: Prestwick) 0 | dopaminergic neuron differentiation score ([2]; library: Tocriscreen) 0

O=C1NC(=O)C(c2ccccc2[N+](=O)[O-])=C1Nc1ccc(O)c(Cl)c1
inactive: dopaminergic neuron differentiation score ([2]; library: LOPAC) 0 | dopaminergic neuron differentiation score ([2]; library: Tocriscreen) 0
active: neuronal differentiation score ([1]; library: LOPAC) 3 | neuronal differentiation score ([1]; library: Tocriscreen) 3

N=C(N)c1ccc(OCCCCCOc2ccc(C(=N)N)cc2)cc1 [Pentamidine isethionate]
inactive: neuronal differentiation score ([1]; library: LOPAC) 0 | neuronal differentiation score ([1]; library: Prestwick) 0 | dopaminergic neuron differentiation score ([2]; library: LOPAC) 0 | dopaminergic neuron differentiation score ([2]; library: Prestwick) 0

CN(Cc1cnc2nc(N)nc(N)c2n1)c1ccc(C(=O)N[C@@H](CCC(=O)O)C(=O)O)cc1 [Methotrexate]
inactive: neuronal differentiation score ([1]; library: Prestwick) 0 | neuronal differentiation score ([1]; library: Tocriscreen) 0 | dopaminergic neuron differentiation score ([2]; library: Prestwick) 0 | dopaminergic neuron differentiation score ([2]; library: Tocriscreen) 0

COc1cc(C(=O)OCCCN2CCCN(CCCOC(=O)c3cc(OC)c(OC)c(OC)c3)CC2)cc(OC)c1OC [Dilazep dihydrochloride]
inactive: neuronal differentiation score ([1]; library: Prestwick) 0 | neuronal differentiation score ([1]; library: Tocriscreen) 0 | dopaminergic neuron differentiation score ([2]; library: Prestwick) 1 | dopaminergic neuron differentiation score ([2]; library: Tocriscreen) 1

Cc1ncc(C[n+]2csc(CCO)c2C)c(N)n1 [Thiamine hydrochloride]
inactive: neuronal differentiation score ([1]; library: Phytochemical) 0 | neuronal differentiation score ([1]; library: Prestwick) 0 | dopaminergic neuron differentiation score ([2]; library: Phytochemical) 0 | dopaminergic neuron differentiation score ([2]; library: Prestwick) 0

Cc1cccc(/C=C/c2ccccc2)n1
inactive: neuronal differentiation score ([1]; library: LOPAC) 0 | neuronal differentiation score ([1]; library: Tocriscreen) 0 | dopaminergic neuron differentiation score ([2]; library: LOPAC) 0 | dopaminergic neuron differentiation score ([2]; library: Tocriscreen) 0

COc1ccccc1N1CCN(CC(O)COc2cccc3ccccc23)CC1 (stereo not drawn) [Naftopidil dihydrochloride]
inactive: neuronal differentiation score ([1]; library: LOPAC) 0 | neuronal differentiation score ([1]; library: Prestwick) 0 | dopaminergic neuron differentiation score ([2]; library: LOPAC) 0 | dopaminergic neuron differentiation score ([2]; library: Prestwick) 0

CC(C)(C)c1ccc(S(=O)(=O)/C=C/C#N)cc1
inactive: neuronal differentiation score ([1]; library: LOPAC) 1 | neuronal differentiation score ([1]; library: Tocriscreen) 0 | dopaminergic neuron differentiation score ([2]; library: LOPAC) 0 | dopaminergic neuron differentiation score ([2]; library: Tocriscreen) 0

Nc1nc2c(ncn2COC(CO)CO)c(=O)[nH]1 [Ganciclovir]
inactive: neuronal differentiation score ([1]; library: LOPAC) 0 | neuronal differentiation score ([1]; library: Prestwick) 0 | dopaminergic neuron differentiation score ([2]; library: LOPAC) 0 | dopaminergic neuron differentiation score ([2]; library: Prestwick) 0

NC1CCN(c2cccc(Cl)n2)CC1
inactive: neuronal differentiation score ([1]; library: LOPAC) 0 | neuronal differentiation score ([1]; library: Tocriscreen) 0 | dopaminergic neuron differentiation score ([2]; library: LOPAC) 0 | dopaminergic neuron differentiation score ([2]; library: Tocriscreen) 0

Clc1ccccc1C(c1ccccc1)(c1ccccc1)n1ccnc1 [Clotrimazole]
inactive: neuronal differentiation score ([1]; library: LOPAC) -1 | neuronal differentiation score ([1]; library: Prestwick) 0 | dopaminergic neuron differentiation score ([2]; library: LOPAC) 0 | dopaminergic neuron differentiation score ([2]; library: Prestwick) 1

NCC(O)(CS(=O)(=O)O)c1ccc(Cl)cc1 (stereo not drawn) [2-Hydroxysaclofen]
inactive: neuronal differentiation score ([1]; library: LOPAC) 0 | neuronal differentiation score ([1]; library: Tocriscreen) 0 | dopaminergic neuron differentiation score ([2]; library: LOPAC) 0 | dopaminergic neuron differentiation score ([2]; library: Tocriscreen) 0

Cc1ccc(/C(=C\CN2CCCC2)c2ccccn2)cc1 [Triprolidine hydrochloride]
inactive: neuronal differentiation score ([1]; library: LOPAC) 0 | neuronal differentiation score ([1]; library: Prestwick) 0 | dopaminergic neuron differentiation score ([2]; library: LOPAC) 0 | dopaminergic neuron differentiation score ([2]; library: Prestwick) 0

Cc1ccccc1N1C(=O)c2cc(S(N)(=O)=O)c(Cl)cc2NC1C (stereo not drawn) [Metolazone]
inactive: neuronal differentiation score ([1]; library: LOPAC) 0 | neuronal differentiation score ([1]; library: Prestwick) 0 | dopaminergic neuron differentiation score ([2]; library: LOPAC) 0 | dopaminergic neuron differentiation score ([2]; library: Prestwick) 0

O=C(/C=C/c1ccc(O)c(O)c1)OCCc1ccccc1 [Caffeic acid phenethyl ester]
inactive: neuronal differentiation score ([1]; library: LOPAC) 0 | neuronal differentiation score ([1]; library: Tocriscreen) 1 | dopaminergic neuron differentiation score ([2]; library: LOPAC) 0 | dopaminergic neuron differentiation score ([2]; library: Tocriscreen) 0

C[N+](C)(C)CCOC(N)=O [Carbachol]
inactive: neuronal differentiation score ([1]; library: LOPAC) -1 | neuronal differentiation score ([1]; library: Prestwick) 0 | dopaminergic neuron differentiation score ([2]; library: LOPAC) 0 | dopaminergic neuron differentiation score ([2]; library: Prestwick) 0

CC(=O)N[C@@H](Cc1c[nH]c2ccccc12)C(=O)OCc1cc(C(F)(F)F)cc(C(F)(F)F)c1
inactive: neuronal differentiation score ([1]; library: LOPAC) 0 | neuronal differentiation score ([1]; library: Tocriscreen) 1 | dopaminergic neuron differentiation score ([2]; library: LOPAC) 0 | dopaminergic neuron differentiation score ([2]; library: Tocriscreen) 0

CN(C)CCOC(c1ccccc1)c1ccccc1 [Diphenhydramine hydrochloride]
inactive: neuronal differentiation score ([1]; library: LOPAC) 0 | neuronal differentiation score ([1]; library: Prestwick) 0 | dopaminergic neuron differentiation score ([2]; library: LOPAC) 0 | dopaminergic neuron differentiation score ([2]; library: Prestwick) 0

CCCCC[C@H](O)/C=C/[C@H]1[C@H](O)CC(=O)[C@@H]1CCCCCCC(=O)O [Alprostadil]
inactive: neuronal differentiation score ([1]; library: Prestwick) 0 | neuronal differentiation score ([1]; library: Tocriscreen) 0 | dopaminergic neuron differentiation score ([2]; library: Prestwick) 0 | dopaminergic neuron differentiation score ([2]; library: Tocriscreen) 0

CCCCCCC(=O)OC1CC(C)(C)NC(C)(C)C1 [TMPH hydrochloride]
inactive: neuronal differentiation score ([1]; library: LOPAC) 0 | neuronal differentiation score ([1]; library: Tocriscreen) 0 | dopaminergic neuron differentiation score ([2]; library: LOPAC) 0 | dopaminergic neuron differentiation score ([2]; library: Tocriscreen) 0

NS(=O)(=O)Cc1noc2ccccc12 [Zonisamide]
inactive: neuronal differentiation score ([1]; library: Prestwick) 0 | neuronal differentiation score ([1]; library: Tocriscreen) 0 | dopaminergic neuron differentiation score ([2]; library: Prestwick) 0 | dopaminergic neuron differentiation score ([2]; library: Tocriscreen) 0

CC[N+](CC)(CC)CCOc1ccc(/C=C/c2ccccc2)cc1
inactive: neuronal differentiation score ([1]; library: LOPAC) 0 | neuronal differentiation score ([1]; library: Tocriscreen) 0 | dopaminergic neuron differentiation score ([2]; library: LOPAC) 0 | dopaminergic neuron differentiation score ([2]; library: Tocriscreen) 0

Cn1ccc2cc(NC(=O)Nc3cccnc3)ccc21
inactive: neuronal differentiation score ([1]; library: LOPAC) 0 | neuronal differentiation score ([1]; library: Tocriscreen) 1 | dopaminergic neuron differentiation score ([2]; library: LOPAC) 0 | dopaminergic neuron differentiation score ([2]; library: Tocriscreen) 0

CCc1c(C)[nH]c2c1C(=O)C(CN1CCOCC1)CC2 (stereo not drawn) [Molindone hydrochloride]
inactive: neuronal differentiation score ([1]; library: LOPAC) 0 | neuronal differentiation score ([1]; library: Prestwick) 0 | dopaminergic neuron differentiation score ([2]; library: LOPAC) 0 | dopaminergic neuron differentiation score ([2]; library: Prestwick) 0

Cc1cc(C(C)(C)C)cc(C)c1CC1=NCCN1 [Xylometazoline hydrochloride]
inactive: neuronal differentiation score ([1]; library: LOPAC) 0 | neuronal differentiation score ([1]; library: Prestwick) 0 | dopaminergic neuron differentiation score ([2]; library: LOPAC) 0 | dopaminergic neuron differentiation score ([2]; library: Prestwick) 0

CC[C@H]1OC(=O)[C@H](C)[C@@H](O[C@H]2C[C@@](C)(OC)[C@@H](O)[C@H](C)O2)[C@H](C)[C@@H](O[C@@H]2O[C@H](C)C[C@H](N(C)C)[C@H]2O)[C@](C)(O)C[C@@H](C)C(=O)[C@H](C)[C@@H](O)[C@]1(C)O [Erythromycin]
inactive: neuronal differentiation score ([1]; library: Phytochemical) 0 | neuronal differentiation score ([1]; library: Prestwick) 0 | dopaminergic neuron differentiation score ([2]; library: Phytochemical) 0 | dopaminergic neuron differentiation score ([2]; library: Prestwick) 0

CNCCCN1c2ccccc2CCc2ccccc21 [Desipramine hydrochloride]
inactive: neuronal differentiation score ([1]; library: LOPAC) 0 | neuronal differentiation score ([1]; library: Prestwick) 0 | dopaminergic neuron differentiation score ([2]; library: LOPAC) 0 | dopaminergic neuron differentiation score ([2]; library: Prestwick) 0

Nc1c(Br)cc(Br)cc1CN[C@H]1CC[C@H](O)CC1 [Ambroxol hydrochloride]
inactive: neuronal differentiation score ([1]; library: Prestwick) 0 | neuronal differentiation score ([1]; library: Tocriscreen) 0 | dopaminergic neuron differentiation score ([2]; library: Prestwick) 0 | dopaminergic neuron differentiation score ([2]; library: Tocriscreen) 0

CCN(CC)CCOC(=O)c1ccc(N)cc1 [Procaine hydrochloride]
inactive: neuronal differentiation score ([1]; library: LOPAC) 0 | neuronal differentiation score ([1]; library: Prestwick) 0 | dopaminergic neuron differentiation score ([2]; library: LOPAC) 0 | dopaminergic neuron differentiation score ([2]; library: Prestwick) 0

COC(=O)[C@H](NC(=O)c1cc(-c2ccccc2)nc2ccccc12)c1ccccc1
inactive: neuronal differentiation score ([1]; library: LOPAC) 0 | neuronal differentiation score ([1]; library: Tocriscreen) 0 | dopaminergic neuron differentiation score ([2]; library: LOPAC) 0 | dopaminergic neuron differentiation score ([2]; library: Tocriscreen) 0

CC[C@]12CCCN3CCc4c(n(c5ccccc45)[C@@](O)(C(=O)OC)C1)[C@@H]32 [Vincamine]
inactive: neuronal differentiation score ([1]; library: Phytochemical) 0 | neuronal differentiation score ([1]; library: Prestwick) 0 | dopaminergic neuron differentiation score ([2]; library: Phytochemical) 0 | dopaminergic neuron differentiation score ([2]; library: Prestwick) 0

O=c1c2ccccc2nc2n1CCc1c-2[nH]c2ccccc12 [Rutaecarpine]
active: dopaminergic neuron differentiation score ([2]; library: LOPAC) 3
inactive: neuronal differentiation score ([1]; library: LOPAC) 0 | neuronal differentiation score ([1]; library: Phytochemical) 0 | dopaminergic neuron differentiation score ([2]; library: Phytochemical) 0

CC(C)(C)NCC(O)c1ccc(O)c(CO)c1 (stereo not drawn) [Salbutamol]
inactive: neuronal differentiation score ([1]; library: LOPAC) 0 | neuronal differentiation score ([1]; library: Prestwick) 0 | dopaminergic neuron differentiation score ([2]; library: LOPAC) 0 | dopaminergic neuron differentiation score ([2]; library: Prestwick) 0

CCOC(=O)N1CCC(=C2c3ccc(Cl)cc3CCc3cccnc32)CC1 [Loratadine]
inactive: neuronal differentiation score ([1]; library: LOPAC) 0 | neuronal differentiation score ([1]; library: Prestwick) 0 | dopaminergic neuron differentiation score ([2]; library: LOPAC) 0 | dopaminergic neuron differentiation score ([2]; library: Prestwick) 0

Clc1ccc(Cn2c(CN3CCCC3)nc3ccccc32)cc1 [Clemizole hydrochloride]
inactive: neuronal differentiation score ([1]; library: LOPAC) 1 | neuronal differentiation score ([1]; library: Prestwick) 1 | dopaminergic neuron differentiation score ([2]; library: LOPAC) 1 | dopaminergic neuron differentiation score ([2]; library: Prestwick) 0

Nc1c2c(nc3ccccc13)CCCC2 [Tacrine hydrochloride]
inactive: neuronal differentiation score ([1]; library: Prestwick) 0 | neuronal differentiation score ([1]; library: Tocriscreen) 1 | dopaminergic neuron differentiation score ([2]; library: Prestwick) 0 | dopaminergic neuron differentiation score ([2]; library: Tocriscreen) 0
